Data on one compound can be found in the supplement of paper PMC6411743.

± gives the standard deviation of the averaged measurements. This is one part of the list.

This assay has as its target T1, H3BNT4 and related entries (UniProt Q99547).
T1 sequence (whole entry): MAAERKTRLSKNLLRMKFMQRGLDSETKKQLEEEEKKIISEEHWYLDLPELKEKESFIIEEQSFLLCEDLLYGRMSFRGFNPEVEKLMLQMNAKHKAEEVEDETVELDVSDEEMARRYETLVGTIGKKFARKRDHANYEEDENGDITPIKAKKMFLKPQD
Briefly: NP40-soluble protein abundance relative to vehicle (solubility fold change) (ratio); higher = more soluble protein in presence of GTP. Here is the method:
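Solubility proteome profiling in Jurkat crude lysate. Lysate was treated with Mg-GTP (0.1-10 mM) for 10 min at room temperature and 3 min at 37 °C, then solubilised with 0.8% NP40 and benzonase, followed by ultracentrifugation. Proteins were quantified by TMT10 LC-MS/MS; the value is the NP40-soluble abundance relative to the NP40-processed vehicle, from 3 independent experiments.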

Take `Nc1nc2c(ncn2[C@@H]2O[C@H](COP(=O)(O)OP(=O)(O)OP(=O)(O)O)[C@@H](O)[C@H]2O)c(=O)[nH]1` [guanosine triphosphate]: the NP40-soluble protein abundance was 1 ± 0.047 (concentration: 0.1mM); 1.08 ± 0.076 (concentration: 0.5mM); 1.12 ± 0.11 (concentration: 1mM); 1.25 ± 0.17 (concentration: 2mM); 1.4 ± 0.26 (concentration: 4mM); 1.45 ± 0.069 (concentration: 6mM). The NP40-soluble protein abundance (concentration: 8mM) was 1.47 ± 0.23 and the NP40-soluble protein abundance (concentration: 10mM) amounted to 1.54 ± 0.29.
